# According to patent US9764037B2 (Victoria Link Limited, priority 2012, dated 2017):
# Test: general procedure: Fmoc solid-phase peptide synthesis; trityl chloride resin (e.g. also 2-chlorotrityl chloride, Wang, Sasrin, HMPB); Rink amide, Pal, MBHA or Sieber for C-term
# Settings: conjugation step
Substance,conjugation yield [%],final HPLC purity [%]
4-pentynoyl-FFRKSVYDFFVWLKFFHRTCKCTGNFA,31,94.8
4-pentynoyl-SVYDFFVWLKFFHRTCKCTGNFA,33,82
2-(aminooxy)acetyl-FFRKKAVYNFATM,76,94.0
4-pentynoyl-FFRKRAHYNIVTF,56,96.7
4-pentynoyl-ILARNLVPMVATV,50,94.8
4-pentynoyl-FFRKKISQAVHAAHAEINEAGRESIINFEKL-TEWT,69,97.6
4-pentynoyl-FFRKAVGALEGPRNQDWLGVPRQL (conjugated to alpha-GalCer; Synthetic Immunogen),80,95.1
4-pentynoyl-FFRKDLAQMFFCFKELEGW,36,96.2
4-pentynoyl-FFRKNLVPMVATV,77,94.2
